According to article PMC7862700:
Some of the results follow. Construct or isoform of the protein are uncertain.

biological target: T1, ETV4 (UniProt P43268); assay: DAPPL (digital affinity profiling via proximity ligation, sequencing); conditions: 10 mM Tris-HCl pH 7.5, 50 mM NaCl, 1 mM DTT, 4% glycerol, room temperature, 30 min; GST-TFs on glutathione beads, 16-mer random dsDNA library, 0.1% …; high values mean tight binding; double strand, one strand shown; scale: fold enrichment (6-mer frequency, TF over GST control)
T1 sequence: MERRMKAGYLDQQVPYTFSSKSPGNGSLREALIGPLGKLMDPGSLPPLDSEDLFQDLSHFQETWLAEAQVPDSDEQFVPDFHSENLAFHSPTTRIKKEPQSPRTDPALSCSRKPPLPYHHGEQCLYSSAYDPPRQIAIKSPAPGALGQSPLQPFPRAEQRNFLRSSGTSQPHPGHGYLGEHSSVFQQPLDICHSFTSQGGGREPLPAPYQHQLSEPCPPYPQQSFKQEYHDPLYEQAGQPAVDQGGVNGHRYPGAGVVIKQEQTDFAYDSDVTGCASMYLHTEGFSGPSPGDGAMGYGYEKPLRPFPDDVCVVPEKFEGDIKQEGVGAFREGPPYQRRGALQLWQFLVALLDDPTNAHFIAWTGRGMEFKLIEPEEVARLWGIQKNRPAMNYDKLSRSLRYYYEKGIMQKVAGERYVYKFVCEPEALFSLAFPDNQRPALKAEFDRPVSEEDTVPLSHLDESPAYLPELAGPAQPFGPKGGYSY

Row | Sequence | binding signal
1 | CACCAC | 1.19
2 | ACCCCT | 1.05
3 | AATGCG | 1.21
4 | TACGCA | 1.26
5 | TTGTAT | 1.32
6 | AAGCTA | 1.2
7 | CATTCA | 1.06
8 | AGCAAT | 1.1
9 | TCTGAC | 1.22
10 | CTCCGT | 1.23
11 | TTATCT | 1.29
12 | TTCTAT | 1.41
13 | CTTAGC | 1.26
14 | CAATGC | 1.22
15 | ACTCCA | 1.19
16 | CTACCA | 1.28
17 | TGATGA | 1.28
18 | TTTACC | 1.21
19 | TCAAGT | 1.1
20 | ACTCAC | 1.28

Exported with tabs: entries from further up
Row	Sequence	binding signal
5	TTGTAT	1.32
8	AGCAAT	1.1
14	CAATGC	1.22

Continuation:

Row | Sequence | binding signal
21 | TCGCTG | 1.04
22 | CGTTTA | 0.988
23 | CTCAGT | 1.23
24 | CACATA | 1.17
25 | CTCAGC | 1.28
26 | GTAGCT | 1.13
27 | CATTAT | 1.2
28 | TCAAGG | 0.966
29 | TAGCCT | 1.28
30 | TGCAGC | 1.1
31 | GTGTTT | 1.1
32 | CAAACC | 1.11
33 | TATACG | 1.27
34 | CTGAAC | 1.34
35 | CTGTTC | 1.28
36 | GGAACT | 1.8
37 | CAATTC | 1.29
38 | CAATCT | 1.22
39 | GCGACC | 1.13
40 | CCTTAA | 1.31
